Results are given in words; binding and its absence hold for the method and conditions named. Binding seen in cells or lysates may run through a third protein. Some results given as binding are weak or reduced against the parent protein; the word gives no strength.

By UniProt entry, the sequences of proteins in these tests, tags left out.
UniProt Q96PU5: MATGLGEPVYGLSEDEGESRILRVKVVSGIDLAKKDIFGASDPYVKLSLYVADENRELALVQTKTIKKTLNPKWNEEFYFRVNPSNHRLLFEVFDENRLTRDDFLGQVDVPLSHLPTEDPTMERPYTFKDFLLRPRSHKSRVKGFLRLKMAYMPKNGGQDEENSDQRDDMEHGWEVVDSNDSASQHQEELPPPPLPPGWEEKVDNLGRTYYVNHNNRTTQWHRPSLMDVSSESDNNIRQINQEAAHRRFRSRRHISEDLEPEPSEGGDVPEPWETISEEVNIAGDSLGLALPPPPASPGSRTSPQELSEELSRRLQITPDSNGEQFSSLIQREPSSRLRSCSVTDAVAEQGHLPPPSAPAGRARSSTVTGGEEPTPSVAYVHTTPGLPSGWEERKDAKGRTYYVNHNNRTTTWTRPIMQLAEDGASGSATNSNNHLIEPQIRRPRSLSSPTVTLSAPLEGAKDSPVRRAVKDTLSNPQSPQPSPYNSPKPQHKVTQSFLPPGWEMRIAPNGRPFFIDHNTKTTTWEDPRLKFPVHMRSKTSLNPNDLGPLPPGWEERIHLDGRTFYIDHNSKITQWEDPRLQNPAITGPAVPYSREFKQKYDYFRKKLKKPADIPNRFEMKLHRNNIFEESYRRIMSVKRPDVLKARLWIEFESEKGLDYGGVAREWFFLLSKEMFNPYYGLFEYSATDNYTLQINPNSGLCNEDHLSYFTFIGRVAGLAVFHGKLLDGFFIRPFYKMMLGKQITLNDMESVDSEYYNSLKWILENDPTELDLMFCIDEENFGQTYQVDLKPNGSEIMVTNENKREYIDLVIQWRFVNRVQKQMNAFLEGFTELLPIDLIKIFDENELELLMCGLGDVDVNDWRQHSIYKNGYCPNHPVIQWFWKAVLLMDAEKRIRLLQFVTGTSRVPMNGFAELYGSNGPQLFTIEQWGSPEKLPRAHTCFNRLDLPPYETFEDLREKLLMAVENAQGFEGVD
UniProt Q03135: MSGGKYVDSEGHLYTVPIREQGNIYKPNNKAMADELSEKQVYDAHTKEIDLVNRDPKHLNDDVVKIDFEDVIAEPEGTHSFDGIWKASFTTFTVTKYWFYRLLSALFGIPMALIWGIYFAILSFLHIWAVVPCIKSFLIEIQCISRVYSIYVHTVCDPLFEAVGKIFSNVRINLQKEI
UniProt O00141: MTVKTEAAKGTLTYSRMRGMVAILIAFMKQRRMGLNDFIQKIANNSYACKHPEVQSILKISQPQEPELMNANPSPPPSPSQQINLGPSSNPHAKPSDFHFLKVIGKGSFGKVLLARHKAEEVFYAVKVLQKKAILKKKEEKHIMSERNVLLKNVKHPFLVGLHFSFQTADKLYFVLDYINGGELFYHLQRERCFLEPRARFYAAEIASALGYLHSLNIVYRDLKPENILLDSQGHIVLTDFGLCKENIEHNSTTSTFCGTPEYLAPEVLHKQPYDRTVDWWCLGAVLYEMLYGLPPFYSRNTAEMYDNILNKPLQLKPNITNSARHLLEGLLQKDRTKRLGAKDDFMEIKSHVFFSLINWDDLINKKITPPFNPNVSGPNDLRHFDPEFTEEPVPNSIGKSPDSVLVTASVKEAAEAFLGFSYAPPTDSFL

What all share (experiment): co-IP; endogenous proteins precipitated from whole lysates of neutrophils from patients with HTN and NTI; 2x lysis buffer 2 mM EGTA, 100 mM HEPES, 150 mM NaCl, 2% NP40, pH 7.4, protease inhibitors; antibody 2 h at 4 °C, A/G agarose beads overnight; immunoblot; irrelevant antibody (IgG0) as control
Background: Immunoblotting shows a protein as a band on a membrane.

For experiment [1], the target named is T1, epithelial sodium channel (ENaC) α subunit (human (endogenous in neutrophils)) (UniProt P37088).
T1 sequence: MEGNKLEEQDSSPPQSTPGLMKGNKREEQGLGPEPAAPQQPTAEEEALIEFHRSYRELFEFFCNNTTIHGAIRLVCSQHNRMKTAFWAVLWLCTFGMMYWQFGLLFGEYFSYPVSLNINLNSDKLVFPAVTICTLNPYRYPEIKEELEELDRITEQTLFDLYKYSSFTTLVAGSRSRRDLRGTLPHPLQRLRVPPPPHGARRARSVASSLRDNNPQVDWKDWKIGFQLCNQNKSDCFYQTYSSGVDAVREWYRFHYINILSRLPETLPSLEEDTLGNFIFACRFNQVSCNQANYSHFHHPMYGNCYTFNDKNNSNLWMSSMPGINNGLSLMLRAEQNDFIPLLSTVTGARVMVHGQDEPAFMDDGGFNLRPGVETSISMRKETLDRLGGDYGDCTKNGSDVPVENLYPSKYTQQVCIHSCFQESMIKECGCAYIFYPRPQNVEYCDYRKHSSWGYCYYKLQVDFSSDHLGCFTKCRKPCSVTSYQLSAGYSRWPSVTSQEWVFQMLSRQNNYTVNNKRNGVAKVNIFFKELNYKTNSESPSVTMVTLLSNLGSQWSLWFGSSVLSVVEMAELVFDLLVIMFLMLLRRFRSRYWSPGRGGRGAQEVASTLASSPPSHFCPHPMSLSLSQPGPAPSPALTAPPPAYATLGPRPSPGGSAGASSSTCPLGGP

For experiment [2], the target named is NEDD4-2 (human (endogenous in neutrophils)) (UniProt Q96PU5).
Experiment [3] deals with caveolin-1 (human (endogenous in neutrophils)) (UniProt Q03135).
Experiment [4] concerns the target T2, vacuolar protein sorting protein 37 B (human (endogenous in neutrophils)) (UniProt Q9H9H4).
T2 sequence: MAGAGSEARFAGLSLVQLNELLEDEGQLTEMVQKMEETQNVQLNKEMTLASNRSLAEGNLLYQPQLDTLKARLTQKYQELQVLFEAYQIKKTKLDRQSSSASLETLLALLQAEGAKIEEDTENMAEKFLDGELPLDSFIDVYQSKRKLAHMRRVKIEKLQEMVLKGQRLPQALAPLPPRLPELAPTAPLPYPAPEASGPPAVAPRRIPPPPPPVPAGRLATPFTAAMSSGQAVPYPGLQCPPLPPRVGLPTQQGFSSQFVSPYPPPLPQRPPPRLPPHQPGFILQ

Consider caveolin-1 (from UniProt Q03135 1-178), for which, in experiment [1], the binding result is “binds”.
Consider “serum- and glucocorticoid-regulated kinase-1 (from UniProt O00141 1-431) (enzyme)”, for which the binding result in experiment [2] is recorded as “binds”.

B1: vacuolar protein sorting protein 37 B (protein, UniProt Q9H9H4 1-285)
chain: MAGAGSEARFAGLSLVQLNELLEDEGQLTEMVQKMEETQNVQLNKEMTLASNRSLAEGNLLYQPQLDTLKARLTQKYQELQVLFEAYQIKKTKLDRQSSSASLETLLALLQAEGAKIEEDTENMAEKFLDGELPLDSFIDVYQSKRKLAHMRRVKIEKLQEMVLKGQRLPQALAPLPPRLPELAPTAPLPYPAPEASGPPAVAPRRIPPPPPPVPAGRLATPFTAAMSSGQAVPYPGLQCPPLPPRVGLPTQQGFSSQFVSPYPPPLPQRPPPRLPPHQPGFILQ
Take B1: the binding entry in experiment [1] is listed as “binds”.

B2: epithelial sodium channel (ENaC) α subunit (protein, UniProt P37088 1-669)
chain: MEGNKLEEQDSSPPQSTPGLMKGNKREEQGLGPEPAAPQQPTAEEEALIEFHRSYRELFEFFCNNTTIHGAIRLVCSQHNRMKTAFWAVLWLCTFGMMYWQFGLLFGEYFSYPVSLNINLNSDKLVFPAVTICTLNPYRYPEIKEELEELDRITEQTLFDLYKYSSFTTLVAGSRSRRDLRGTLPHPLQRLRVPPPPHGARRARSVASSLRDNNPQVDWKDWKIGFQLCNQNKSDCFYQTYSSGVDAVREWYRFHYINILSRLPETLPSLEEDTLGNFIFACRFNQVSCNQANYSHFHHPMYGNCYTFNDKNNSNLWMSSMPGINNGLSLMLRAEQNDFIPLLSTVTGARVMVHGQDEPAFMDDGGFNLRPGVETSISMRKETLDRLGGDYGDCTKNGSDVPVENLYPSKYTQQVCIHSCFQESMIKECGCAYIFYPRPQNVEYCDYRKHSSWGYCYYKLQVDFSSDHLGCFTKCRKPCSVTSYQLSAGYSRWPSVTSQEWVFQMLSRQNNYTVNNKRNGVAKVNIFFKELNYKTNSESPSVTMVTLLSNLGSQWSLWFGSSVLSVVEMAELVFDLLVIMFLMLLRRFRSRYWSPGRGGRGAQEVASTLASSPPSHFCPHPMSLSLSQPGPAPSPALTAPPPAYATLGPRPSPGGSAGASSSTCPLGGP
Turning to B2, the binding entry in experiment [3] and in experiment [4] was “binds” each time.

The record behind these values is PMC11084340.
